This is one part of the list.

By UniProt entry, the sequences of proteins in these tests, tags left out.
UniProt Q0JBA9, entry or part of it: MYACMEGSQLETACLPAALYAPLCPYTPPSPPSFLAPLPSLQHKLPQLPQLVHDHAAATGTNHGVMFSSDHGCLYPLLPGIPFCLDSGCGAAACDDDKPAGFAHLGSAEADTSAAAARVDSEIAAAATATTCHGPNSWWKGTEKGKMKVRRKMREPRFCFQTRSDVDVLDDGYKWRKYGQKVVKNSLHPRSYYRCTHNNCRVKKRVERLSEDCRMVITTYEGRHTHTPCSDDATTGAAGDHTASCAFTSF

From paper PMC7819943, “Rice protein-binding microarrays: a tool to detect cis-acting elements near promoter regions in rice” come the findings set out here.

This assay concerns the target OsWRKY34 (Oryza sativa, UniProt Q0JBA9 1-250). The assay is described as follows: protein-binding microarray (RPBM); PBS, 2% BSA, 51.3 ng/ul salmon testes DNA, 50 uM zinc acetate, 200 nM TF, 25 C, 1 h; high values mean tight binding. The following applies: protein: recombinant; tags: N-terminal polyhistidine and DsRed monomer fusion (pET32a); label: CyDye5-dUTP incorporated in the synthesized complementary strand; 3' TTTTT single-stranded linker to array surface; dsDNA, one strand shown. The gist of the method:
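In PBS with 2% BSA, salmon testes DNA and 50 µM zinc acetate, 200 nM protein was incubated on a custom Agilent array at 25 °C for 1 h and then washed off. The array had been made double-stranded by primer extension with Cy5-dUTP and blocked with 2% BSA. The proteins were transcription factors fused N-terminally to polyhistidine and DsRed, expressed in E. coli BL21-CodonPlus and purified on Ni–NTA. The binding signal is per-feature fluorescence intensity (arbitrary units) from an Axon 4000B scanner.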
As to “TCTGCGCTCCCGCATGCCGGCCGCTGAATCATCGTCAATCCGGAGTCACCTAGTGCAG”, the binding signal was 9000 fluorescence intensity (a.u.).

“GCACATATAATCACCGGTTCTTCTGTAATGCAATGATACGCGGAGTCACCTAGTGCAG”: the binding signal was 8730 fluorescence intensity (a.u.).

With “CTACGCGATGCCATCTCACCGATCCCCACCGCTCGCATCCCGGAGTCACCTAGTGCAG”, the binding signal was 11700 fluorescence intensity (a.u.).

With “TTGGTGGGCCGTTATTTTGTTTGGGCTGGATTTGCACGTTCGGAGTCACCTAGTGCAG”, the binding signal is 11700 fluorescence intensity (a.u.).

Take “TTAACCCCTAGCATAGTTTTGATAGACCTCGTACAAATCTCGGAGTCACCTAGTGCAG”: the binding signal was 8300 fluorescence intensity (a.u.).

Consider “CTCTGCTCTCACTTGAACACCTGGTCCCATGGATTGCCTACGGAGTCACCTAGTGCAG”, for which the binding signal is 13900 fluorescence intensity (a.u.).

Take “CCTTTTATTTTCGATCTTACTTATCATTCTTCTCCACCTTCGGAGTCACCTAGTGCAG”: the binding signal was 8770 fluorescence intensity (a.u.).

For “GATGGTGAGGTTGGCGTGTAGGTGCGGGCAGCTGTTGTTTCGGAGTCACCTAGTGCAG”, the binding signal is 9450 fluorescence intensity (a.u.).

As to “TATGGTTTCTTGCTGATTTCTTATCTCTACCGGTGTTTATCGGAGTCACCTAGTGCAG”, the binding signal was 13300 fluorescence intensity (a.u.).

Consider “ACATTTTGTGAGTCGGACCACCTATACCCTAAATTTTAGACGGAGTCACCTAGTGCAG”, for which the binding signal was 10100 fluorescence intensity (a.u.).

Regarding “CCGACCCAGATCCACCCGGATTCTTATCCCGTACGGCACCCGGAGTCACCTAGTGCAG”, the binding signal is 8280 fluorescence intensity (a.u.).

Turning to “ACCCTATCGTATTTAATTTTCCATAATGACTATCCCTGCACGGAGTCACCTAGTGCAG”, the binding signal is 9160 fluorescence intensity (a.u.).

For “GCTGTTTCTCTCTCAACTGCTTCACACTGTTGCTCTCTTCCGGAGTCACCTAGTGCAG”, the binding signal is 11300 fluorescence intensity (a.u.).

In the case of “GTCCTTGGGGCTCTATATATACCTCGTTTCTCCAGGCCGGCGGAGTCACCTAGTGCAG”, the binding signal is 8400 fluorescence intensity (a.u.).

Take “GATGGGAGACATGTTGCGTCGTTCCCTTACCGCACTGTAACGGAGTCACCTAGTGCAG”: the binding signal was 8240 fluorescence intensity (a.u.).

Consider “ATATTGCCTCTTCCATGCGCCCACTTGCTCGGTTGAACAACGGAGTCACCTAGTGCAG”, for which the binding signal was 11800 fluorescence intensity (a.u.).

On to “TCTCTCCAAGTCAAAGCGTGACCTGGTCGTTGACTTGAGACGGAGTCACCTAGTGCAG”, for which the binding signal was 12400 fluorescence intensity (a.u.).

“CTAGGACATCATTTTGTTTGTCGTGTGTGCGCAACTGTTTCGGAGTCACCTAGTGCAG”: the binding signal was 8160 fluorescence intensity (a.u.).

Consider “CTCCCCACCCTACCCCGTCGTCTCCGTTCGCGCGCATCCACGGAGTCACCTAGTGCAG”, for which the binding signal is 9730 fluorescence intensity (a.u.).

As for “ATCAATTTGTTATTGTGTGCCTCGGCTGATTCCTGGACGACGGAGTCACCTAGTGCAG”, the binding signal is 8850 fluorescence intensity (a.u.).

For “GCTCGCTCGCTCGCTCGCTCCGTCTTGTGGTCGCCGCCGCCGGAGTCACCTAGTGCAG”, the binding signal is 9160 fluorescence intensity (a.u.).

With “AGAACCCCGCATCCCACTTCTTCCAGGCTCCAGCTCTTCTCGGAGTCACCTAGTGCAG”, the binding signal was 9110 fluorescence intensity (a.u.).

As for “ATGCCTATGATGCCTATATCATGATTGTTATAATATTTTACGGAGTCACCTAGTGCAG”, the binding signal was 8600 fluorescence intensity (a.u.).

On to “CCACAACTAACCTGTAGACTGTCTTGCACCACCTCCTGACCGGAGTCACCTAGTGCAG”, for which the binding signal was 9760 fluorescence intensity (a.u.).

“TGTACTAGTTAGCTATATTTTGGGACGGGGAAGTATCTTACGGAGTCACCTAGTGCAG”: the binding signal was 9930 fluorescence intensity (a.u.).

As to “GGTCATGGTTTTGGCACGCTTGGATTTGACGCCGCCGGCACGGAGTCACCTAGTGCAG”, the binding signal is 9760 fluorescence intensity (a.u.).

As for “AAAATCGTCATTTAATGCCTATTACTTAGTTGGCCCTTGTCGGAGTCACCTAGTGCAG”, the binding signal was 8050 fluorescence intensity (a.u.).

“TGAATTTTTTTTTCTTTTTCTTCCCTGCTCTCTCTATAATCGGAGTCACCTAGTGCAG”: the binding signal was 8030 fluorescence intensity (a.u.).

“GGATAGATTTCATTTCGTATTAATGGGCTGTTCTTGGTTTCGGAGTCACCTAGTGCAG”: the binding signal was 8720 fluorescence intensity (a.u.).

In the case of “CTGTCCTCACTGCATTAAGGGTTTTTTGGCCCCGTTTATTCGGAGTCACCTAGTGCAG”, the binding signal was 8080 fluorescence intensity (a.u.).

On to “CCTTTTCTCATCTCTCTCTCCTTTCTTTTTAAATTTTATTCGGAGTCACCTAGTGCAG”, for which the binding signal is 10100 fluorescence intensity (a.u.).

As to “CTCTCTCTCTCTCTCTCTCTCGCGCGCGCGCGCGCGCAAGCGGAGTCACCTAGTGCAG”, the binding signal is 9220 fluorescence intensity (a.u.).

Consider “ATTCACCTTAACCAACCTCAATCTGGCATAACACTCAATCCGGAGTCACCTAGTGCAG”, for which the binding signal was 8100 fluorescence intensity (a.u.).

For “TTGAATAAATTTGACTAGAAAAAAAGTCAAACGACTTACACGGAGTCACCTAGTGCAG”, the binding signal was 9300 fluorescence intensity (a.u.).

For the sequence “TCCGGGCTGGGTGGGTGGGGTGGGGATGGAGCTTGCCTGGCGGAGTCACCTAGTGCAG”, the binding signal is 24100 fluorescence intensity (a.u.).

As to “AATTCGTACTTTTTCCTTTGTGTTTTGTCTATCTTAAATTCGGAGTCACCTAGTGCAG”, the binding signal was 14300 fluorescence intensity (a.u.).

On to “CTCTCTCTCTCTCTCTCTCTCTCTCTCTTCGCCGCGCGGCCGGAGTCACCTAGTGCAG”, for which the binding signal was 18300 fluorescence intensity (a.u.).

As to “GAACCCTTCTTCTCTTCTCGTTCCTGCTGTTTCTTGTCTGCGGAGTCACCTAGTGCAG”, the binding signal is 8200 fluorescence intensity (a.u.).

On to “AAACGGCAAAACACCAACCATTTCCTGAACTACGCTCTGACGGAGTCACCTAGTGCAG”, for which the binding signal is 9340 fluorescence intensity (a.u.).

In the case of “CGTTTCACAATGTAAGTCATTATAATATTTCCCACATGCACGGAGTCACCTAGTGCAG”, the binding signal was 9350 fluorescence intensity (a.u.).

As to “TGCTCGCCCGTCGTGTGGACATTTTTTTTTCGGGGTTTTTCGGAGTCACCTAGTGCAG”, the binding signal was 14900 fluorescence intensity (a.u.).

“GCCCGCCGCGGCGCCGCCCTGTGTGCCGCCGCCGCTGACTCGGAGTCACCTAGTGCAG”: the binding signal is 8320 fluorescence intensity (a.u.).
